# Some of the results follow. Values are raw readings; no control value is given beside them.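 In the initial screen, polymyxin B was used at a concentration that permeabilizes Salmonella's outer membrane but not its inner membrane. Maximum growth was set by DMSO wells with or without polymyxin B. Since plates varied, data were ranked per plate, and compounds giving the lowest OD600 advanced as hits.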
# Tested on: Salmonella enterica serovar Typhimurium SL1344
# Experiment: bacterial growth OD600 after 18 h with compound and polymyxin B; higher = more bacterial growth (less inhibition)
# Conditions: 50 µM, Mueller-Hinton broth
structure (smiles),measurement,setting,value
CC(C)(CN1CCOCC1)CN1CC[C@@H](N2CCN(c3ccccc3F)CC2)[C@H](O)C1,bacterial growth OD600,polymyxin B 1 µg/mL,0.887
Cc1nccn1CCC1CCCCN1C(=O)Cn1nnnc1CN1CCOCC1 (stereo not given),bacterial growth OD600,polymyxin B 1 µg/mL,1.01
COC1CCN(Cc2cnc(S(=O)(=O)C(C)C)n2CCc2ccccc2)CC1,bacterial growth OD600,polymyxin B 1 µg/mL,1.24
Cn1cc(CN2CCC(c3ccc(F)c(F)c3)Sc3ccccc32)cn1 (stereo not given),bacterial growth OD600,polymyxin B 0.75 µg/mL,0.001
Cc1cc(C)n(CC(C)NC(=O)c2cn(CCC3CCCCC3)nn2)n1 (stereo not given),bacterial growth OD600,polymyxin B 1 µg/mL,0.916
CCN(CC1CCCN(CCc2cccc(OC)c2)C1)C(=O)CSc1ccncc1 (stereo not given),bacterial growth OD600,polymyxin B 1 µg/mL,0.892
CCC1CN(CCNC(=O)Cn2nc3ccccc3n2)Cc2cc(OC)ccc2O1 (stereo not given),bacterial growth OD600,polymyxin B 0.75 µg/mL,0.781
CCOC(=O)C1(CCCc2ccccc2)CCN(C(=O)C2CC=CCC2)CC1 (stereo not given),bacterial growth OD600,polymyxin B 1 µg/mL,0.002
Cc1csc(C(C)NC2CCN(c3ccc(C(=O)NCCN4CCOCC4)cc3)CC2)n1 (stereo not given),bacterial growth OD600,polymyxin B 0.75 µg/mL,0.857
COc1ccccc1N1CCN(C(=O)c2cn(C(C)C)cc(C(=O)NCc3ccccc3)c2=O)CC1,bacterial growth OD600,polymyxin B 0.75 µg/mL,0.768
COc1ccc(O)c(CN2CCCC(c3[nH]ncc3C(C)C)C2)c1 (stereo not given),bacterial growth OD600,polymyxin B 0.75 µg/mL,0.858
Cc1cc(CNc2ccc(-c3nc(-c4ccccc4F)no3)cn2)no1,bacterial growth OD600,polymyxin B 1 µg/mL,0.482
CCCCNC(=O)c1cn(C(C)C)cc(C(=O)N2CCN(C/C=C/c3ccccc3)CC2)c1=O,bacterial growth OD600,polymyxin B 0.75 µg/mL,0.832
O=C(C1=CCCCC1)N1CCC(CO)(Cc2ccccc2C(F)(F)F)CC1,bacterial growth OD600,polymyxin B 0.75 µg/mL,0.525
COc1ccc2cc(C(=O)C3CCCN(C(=O)c4sccc4C)C3)ccc2c1 (stereo not given),bacterial growth OD600,polymyxin B 1 µg/mL,0.46
CN(Cc1cccs1)C(=O)c1cc(COc2cccc(F)c2)[nH]n1,bacterial growth OD600,polymyxin B 0.75 µg/mL,0.505
CN(CCc1cnn(C)c1)C(=O)CC1(c2ccccc2)CC(=O)N(CCCOc2cccnc2)C1=O (stereo not given),bacterial growth OD600,polymyxin B 0.75 µg/mL,0.884
CCN(CC1CCCN(CCc2cccc(OC)c2)C1)C(=O)CSC (stereo not given),bacterial growth OD600,polymyxin B 0.75 µg/mL,0.836
O=C(NCCC1COc2ccccc2O1)c1ccc(N2CCCOCC2)nc1 (stereo not given),bacterial growth OD600,polymyxin B 1 µg/mL,0.838
COc1cccc(-c2ccc(NC(=O)C3CCCN(C4CCC4)C3)cc2)c1 (stereo not given),bacterial growth OD600,polymyxin B 1 µg/mL,0.903
CCn1ccnc1CNC(=O)CC(c1ccccc1)c1cccc(Cl)c1 (stereo not given),bacterial growth OD600,polymyxin B 0.75 µg/mL,0.215
COc1cccc(CC(C2CCN(C(=O)CC3CCCCC3)CC2)N(C)C(=O)c2ccsc2)c1 (stereo not given),bacterial growth OD600,polymyxin B 0.75 µg/mL,0.002
CCOc1cc(CN2CCC3(CC2)c2ccccc2[C@@H](NC(=O)CSC)[C@@H]3OC)ccc1O,bacterial growth OD600,polymyxin B 0.75 µg/mL,0.858
Cc1cccc(CN2CCCC3(CCN(C(=O)Cc4cccnc4)C3)C2=O)c1 (stereo not given),bacterial growth OD600,polymyxin B 1 µg/mL,1.01
COCC1CCCN(C(=O)c2cc(Cn3cnc4ccccc43)[nH]n2)C1 (stereo not given),bacterial growth OD600,polymyxin B 1 µg/mL,0.907
CC#CCN1C(=O)NC(CCc2ccccc2)(C2CCN(Cc3cccc(O)c3)CC2)C1=O (stereo not given),bacterial growth OD600,polymyxin B 0.75 µg/mL,0.773
COc1ccc(C(=O)N2CCCC2)c(OC2CCN(Cc3ccc(O)c(OC)c3)CC2)c1,bacterial growth OD600,polymyxin B 0.75 µg/mL,0.855
COc1ccc2c(C)nc(N3CCC(NCc4c(F)cccc4F)CC3)nc2c1,bacterial growth OD600,polymyxin B 0.75 µg/mL,0.782
CCc1nc2cc(C(=O)NCCCOc3cccnc3)cc(NC(=O)c3ccccc3OC)c2n1C,bacterial growth OD600,polymyxin B 0.75 µg/mL,0.88
CC(C1CCN(C(=O)CCN2Cc3ccccc3OC(c3ccccc3F)C2)CC1)N1CCOCC1 (stereo not given),bacterial growth OD600,polymyxin B 0.75 µg/mL,0.721

# Fetched by compound from above:
structure (smiles),measurement,setting,value
CCN(CC1CCCN(CCc2cccc(OC)c2)C1)C(=O)CSC (stereo not given),bacterial growth OD600,polymyxin B 0.75 µg/mL,0.836
CC(C1CCN(C(=O)CCN2Cc3ccccc3OC(c3ccccc3F)C2)CC1)N1CCOCC1 (stereo not given),bacterial growth OD600,polymyxin B 0.75 µg/mL,0.721

# From the supplement of paper PMC12889115
